Experimental data as given in patent publication US20260263646A1.
These are yes or no findings as the source states them, for the method shown. Some entries that bind do so weakly or less than the wild type.

By UniProt entry, the sequences of proteins in these tests, tags left out.
UniProt Q04609: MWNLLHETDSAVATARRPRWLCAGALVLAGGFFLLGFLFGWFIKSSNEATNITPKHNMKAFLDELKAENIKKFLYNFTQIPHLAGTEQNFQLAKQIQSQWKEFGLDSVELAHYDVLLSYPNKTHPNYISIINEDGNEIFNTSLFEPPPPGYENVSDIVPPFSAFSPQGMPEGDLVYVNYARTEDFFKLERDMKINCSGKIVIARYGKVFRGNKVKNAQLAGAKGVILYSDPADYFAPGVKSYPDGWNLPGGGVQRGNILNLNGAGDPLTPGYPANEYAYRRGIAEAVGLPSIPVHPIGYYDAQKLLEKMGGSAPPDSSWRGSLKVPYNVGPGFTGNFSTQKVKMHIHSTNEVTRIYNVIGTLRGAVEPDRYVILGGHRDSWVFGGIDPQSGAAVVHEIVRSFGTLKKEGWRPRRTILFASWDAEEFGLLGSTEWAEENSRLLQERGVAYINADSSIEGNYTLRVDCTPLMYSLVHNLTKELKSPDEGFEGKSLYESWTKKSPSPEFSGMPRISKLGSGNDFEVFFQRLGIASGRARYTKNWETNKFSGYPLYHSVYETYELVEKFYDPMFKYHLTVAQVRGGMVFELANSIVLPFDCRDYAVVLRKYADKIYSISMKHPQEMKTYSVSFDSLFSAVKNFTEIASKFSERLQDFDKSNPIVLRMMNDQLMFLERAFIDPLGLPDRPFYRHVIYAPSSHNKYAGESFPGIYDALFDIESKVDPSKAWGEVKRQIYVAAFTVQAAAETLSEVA

Biological target: PSMA on LNCaP cells (human) (UniProt Q04609)
Experiment: flow cytometry

B1: C2-54TYR (VHH)
VHH: EVQLVESGGGLVQPGGSLTLSCAASRFMISEYSMHWVRQAPGKGLEWVSTINPYGTTDYAESVKGRFTISRDNAKNTLYLQMNSLKPEDTAVYYCDGYGYRGQGTQVTVSS
For B1, the binding was “binds”.
